The values below come from paper PMC12412611.

Common to all, as to assay: co-IP; HEK293T co-transfected with the plasmids; IP lysis buffer with PMSF; anti-Flag beads at 4 °C overnight; immunoblot; some panels with CQ (40 µM, 6 h) and with or without co-expressed GSDMD-CT
Experiment [1] deals with T1, Flag-RIG-I (retinoic acid-inducible gene I), O95786.
T1 chain: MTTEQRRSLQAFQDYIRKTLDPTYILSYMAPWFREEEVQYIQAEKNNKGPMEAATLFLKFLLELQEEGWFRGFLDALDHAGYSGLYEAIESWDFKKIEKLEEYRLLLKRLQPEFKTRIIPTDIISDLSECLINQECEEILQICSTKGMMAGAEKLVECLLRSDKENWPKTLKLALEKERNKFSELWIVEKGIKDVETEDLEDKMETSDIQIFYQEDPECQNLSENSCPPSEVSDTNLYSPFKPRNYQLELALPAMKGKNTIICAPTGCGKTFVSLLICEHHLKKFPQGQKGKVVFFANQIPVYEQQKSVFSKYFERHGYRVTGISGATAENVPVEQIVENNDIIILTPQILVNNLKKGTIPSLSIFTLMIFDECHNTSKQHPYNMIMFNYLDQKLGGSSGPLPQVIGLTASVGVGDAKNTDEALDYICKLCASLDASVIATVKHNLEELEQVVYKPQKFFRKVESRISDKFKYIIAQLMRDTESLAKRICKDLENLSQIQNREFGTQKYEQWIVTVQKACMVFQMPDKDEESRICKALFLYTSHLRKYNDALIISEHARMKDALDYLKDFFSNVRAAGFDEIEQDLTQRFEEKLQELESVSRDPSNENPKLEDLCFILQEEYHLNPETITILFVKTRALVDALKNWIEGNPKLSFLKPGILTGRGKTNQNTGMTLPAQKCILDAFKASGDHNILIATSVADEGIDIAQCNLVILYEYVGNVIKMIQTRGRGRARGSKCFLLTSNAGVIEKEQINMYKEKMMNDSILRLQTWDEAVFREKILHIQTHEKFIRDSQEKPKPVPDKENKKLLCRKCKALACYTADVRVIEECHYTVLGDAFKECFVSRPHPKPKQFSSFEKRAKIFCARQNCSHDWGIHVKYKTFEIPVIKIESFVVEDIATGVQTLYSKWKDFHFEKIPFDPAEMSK
The note with it: remark: other sources report otherwise.

Experiment [2] addresses T2, Flag-TBK1 (tank-binding kinase), Q9UHD2.
T2 chain: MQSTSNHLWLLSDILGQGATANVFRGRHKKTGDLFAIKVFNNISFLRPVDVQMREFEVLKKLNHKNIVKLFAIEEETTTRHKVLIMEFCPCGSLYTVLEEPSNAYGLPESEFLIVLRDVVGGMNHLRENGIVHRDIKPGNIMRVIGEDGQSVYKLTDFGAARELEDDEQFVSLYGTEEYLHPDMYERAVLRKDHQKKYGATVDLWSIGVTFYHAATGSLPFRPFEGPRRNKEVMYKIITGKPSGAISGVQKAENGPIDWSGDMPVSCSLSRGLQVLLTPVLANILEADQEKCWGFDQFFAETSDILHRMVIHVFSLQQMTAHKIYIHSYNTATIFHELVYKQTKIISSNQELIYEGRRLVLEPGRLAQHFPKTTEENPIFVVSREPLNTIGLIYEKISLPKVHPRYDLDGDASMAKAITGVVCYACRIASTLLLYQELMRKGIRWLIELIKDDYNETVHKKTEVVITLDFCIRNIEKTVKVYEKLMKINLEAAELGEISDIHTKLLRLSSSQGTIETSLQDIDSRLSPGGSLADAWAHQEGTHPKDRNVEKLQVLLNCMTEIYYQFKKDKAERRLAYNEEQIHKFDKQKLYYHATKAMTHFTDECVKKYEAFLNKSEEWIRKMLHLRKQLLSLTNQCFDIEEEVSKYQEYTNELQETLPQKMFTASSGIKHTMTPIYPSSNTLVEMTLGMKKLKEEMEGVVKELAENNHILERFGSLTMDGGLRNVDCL
The note with it: remark: other sources report otherwise.

The target in experiment [3] is T3, RIG-I (retinoic acid-inducible gene I), overexpressed, tag not told for these experiments (UniProt O95786).
T3 sequence: T1 chain

Experiment [4] concerns the target T4, TBK1 (tank-binding kinase), overexpressed, tag not told for these experiments (UniProt Q9UHD2).
T4 sequence: T2 chain

These are yes or no findings as the source states them, for the method shown. Binding seen in cells or lysates may run through a third protein. Some results given as binding are weak or reduced against the parent protein; the word gives no strength. Tags and fused reporters may be left off the sequences shown.

B1: HA-TRIM28 (Tripartite motif-containing 28), Q13263 1-835 (enzyme)
chain: MAASAAAASAAAASAASGSPGPGEGSAGGEKRSTAPSAAASASASAAASSPAGGGAEALELLEHCGVCRERLRPEREPRLLPCLHSACSACLGPAAPAAANSSGDGGAAGDGTVVDCPVCKQQCFSKDIVENYFMRDSGSKAATDAQDANQCCTSCEDNAPATSYCVECSEPLCETCVEAHQRVKYTKDHTVRSTGPAKSRDGERTVYCNVHKHEPLVLFCESCDTLTCRDCQLNAHKDHQYQFLEDAVRNQRKLLASLVKRLGDKHATLQKSTKEVRSSIRQVSDVQKRVQVDVKMAILQIMKELNKRGRVLVNDAQKVTEGQQERLERQHWTMTKIQKHQEHILRFASWALESDNNTALLLSKKLIYFQLHRALKMIVDPVEPHGEMKFQWDLNAWTKSAEAFGKIVAERPGTNSTGPAPMAPPRAPGPLSKQGSGSSQPMEVQEGYGFGSGDDPYSSAEPHVSGVKRSRSGEGEVSGLMRKVPRVSLERLDLDLTADSQPPVFKVFPGSTTEDYNLIVIERGAAAAATGQPGTAPAGTPGAPPLAGMAIVKEEETEAAIGAPPTATEGPETKPVLMALAEGPGAEGPRLASPSGSTSSGLEVVAPEGTSAPGGGPGTLDDSATICRVCQKPGDLVMCNQCEFCFHLDCHLPALQDVPGEEWSCSLCHVLPDLKEEDGSLSLDGADSTGVVAKLSPANQRKCERVLLALFCHEPCRPLHQLATDSTFSLDQPGGTLDLTLIRARLQEKLSPPYSSPQEFAQDVGRMFKQFNKLTEDKADVQSIIGLQRFFETRMNEAFGDTKFSAVLVEPPPMSLPGAGLSSQELSGGPGDGP
In the case of B1, the binding result in experiment [1] and in experiment [2] was “binds” each time.

B2: NDP52 (protein, UniProt Q13137 1-446)
chain: MEETIKDPPTSAVLLDHCHFSQVIFNSVEKFYIPGGDVTCHYTFTQHFIPRRKDWIGIFRVGWKTTREYYTFMWVTLPIDLNNKSAKQQEVQFKAYYLPKDDEYYQFCYVDEDGVVRGASIPFQFRPENEEDILVVTTQGEVEEIEQHNKELCKENQELKDSCISLQKQNSDMQAELQKKQEELETLQSINKKLELKVKEQKDYWETELLQLKEQNQKMSSENEKMGIRVDQLQAQLSTQEKEMEKLVQGDQDKTEQLEQLKKENDHLFLSLTEQRKDQKKLEQTVEQMKQNETTAMKKQQELMDENFDLSKRLSENEIICNALQRQKERLEGENDLLKRENSRLLSYMGLDFNSLPYQVPTSDEGGARQNPGLAYGNPYSGIQESSSPSPLSIKKCPICKADDICDHTLEQQQMQPLCFNCPICDKIFPATEKQIFEDHVFCHSL
For the molecule B2, the binding result in experiment [3] and in experiment [4] was “binds” each time.
